From patent publication US20050223417A1
No constants are given. Whether binding was seen depends on the method and setting. Binding seen in cells or lysates may run through a third protein. Some binding calls cover weakened binding; strength is not graded here.

Chains of the proteins cited; added tags and fusions are not shown. Lines headed by an entry give the natural chain unless they say otherwise; changes in a name come on top.
UniProt P51943: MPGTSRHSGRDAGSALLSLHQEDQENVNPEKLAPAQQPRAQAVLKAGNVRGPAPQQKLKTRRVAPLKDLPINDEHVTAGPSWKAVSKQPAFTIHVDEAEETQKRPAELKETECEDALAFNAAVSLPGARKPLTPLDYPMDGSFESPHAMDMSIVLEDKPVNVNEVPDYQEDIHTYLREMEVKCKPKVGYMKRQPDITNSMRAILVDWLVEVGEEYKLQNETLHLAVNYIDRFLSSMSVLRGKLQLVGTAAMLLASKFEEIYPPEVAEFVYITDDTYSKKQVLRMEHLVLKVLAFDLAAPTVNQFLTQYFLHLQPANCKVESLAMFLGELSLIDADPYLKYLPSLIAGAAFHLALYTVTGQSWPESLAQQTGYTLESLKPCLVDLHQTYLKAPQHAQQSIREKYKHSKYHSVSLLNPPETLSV
UniProt P46414: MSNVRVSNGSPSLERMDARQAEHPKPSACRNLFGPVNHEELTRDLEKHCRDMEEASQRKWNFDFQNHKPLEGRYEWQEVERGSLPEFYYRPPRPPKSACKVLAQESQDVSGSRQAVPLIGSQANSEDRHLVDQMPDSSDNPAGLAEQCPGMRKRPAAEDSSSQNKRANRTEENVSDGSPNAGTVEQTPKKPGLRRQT

Target: cyclin A (mouse) (UniProt P51943)
Assay: association in extracts of serum-stimulated p27^T187A MEFs in late S/G2; method not described (presumably co-immunoprecipitation and immunoblot)

“p27^T187A protein (mouse p27^Kip1 with threonine 187 changed to alanine) (from UniProt P46414 1-197)” was tested, and the binding was “binds”.
